# The list shows a part of the results. Shown are side measurements of this screen, not its main read-out; they come without a call. Compounds called inactive in the main read-out are mostly missing here. Potencies come from curve fits of mixed quality, noted in brackets.
# Experiment: qHTS Assay for Lipid Storage Modulators in Drosophila S3 Cells;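 on cell number change: cells counted by Cell Tracker Red CMTPX staining in the red channel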
# Conditions: BODIPY lipid droplet fluorescence, 18-24 h; for cell number change: measured here: cell count max response, cells fed with added oleic acid
# In short: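 Laser-scanning cytometry quantifies lipid droplet accumulation (500–530 nm total intensity; droplet/cell object ratio) in oleic acid-fed (400 uM added) Drosophila S3 cells treated with a concentration series. 20 uM Triacsin C defined 100% inhibition.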
# [1] = measured here: lipid fluorescence (Fed channel) AC50, cells fed with added oleic acid
# [2] = measured here: cell number channel AC50, cells fed with added oleic acid
SMILES,cell number change [%],AC50 [1],AC50 [2]
COc1ccccc1NC(C#N)c1ccccc1OCc1ccccc1 (stereo unspecified),-2.25,"14.6 µM [rising, partial curve, poor fit]",
O=C(O)CC(NC(=O)C(F)(F)F)c1ccc2c(c1)OCO2 (stereo unspecified),-56.3,"1.46 µM [falling, full curve]","2.06 µM [falling, partial curve]"
C[C@@H](CSc1ccccc1)CN1CC[C@H](C(C)(C)C)CCC1=O,-3.89,"25.9 µM [falling, single point]",
COc1ccc(CN=Cc2c(C(=O)O)[nH]c3ccccc23)cc1,-18.8,"5.8 µM [falling, partial curve, poor fit]","5.8 µM [falling, single point]"
Cc1cc2n(n1)C(c1ccc3c(c1)OCO3)Nc1ccccc1-2 (stereo unspecified),-23.1,"0.58 µM [rising, full curve, poor fit]",
Cc1cc(C(=O)NC2CCCc3ccccc32)c(C)o1 (stereo unspecified),45.1,,"5.17 µM [rising, single point]"
O=S(=O)(c1ccccc1)N1CCN(Cc2ccccc2C(F)(F)F)CC1,-1.25,"7.31 µM [rising, single point]",
Cc1nnc(N/N=C/c2ccc([N+](=O)[O-])cc2)n1N,-2.17,,
CCOc1ccc(NC(=O)CN(C)C(=O)CSCc2c(C)noc2C)cc1OCC,-21.7,,
Cc1ccnn1CC(=O)N/N=C/c1cccs1,-3.54,,
CCn1cc(C(=O)OCC(=O)Nc2cc(S(=O)(=O)N(C)C)ccc2C)c(=O)c2ccc(C)nc21,,"0.00461 µM [rising, full curve, poor fit]",
CC(C)(C)C1CCc2c(sc3nc(SCC(N)=O)nc(N)c23)C1 (stereo unspecified),-47.7,"16.4 µM [falling, single point]","18.4 µM [falling, single point]"
CCOc1ccc(C2NC(=O)c3n[nH]c(C)c32)cc1 (stereo unspecified),,"0.103 µM [rising, full curve, poor fit]",
CCCN1C(=O)c2cc(C(=O)NC3CCCCCC3)ccc2C1O (stereo unspecified),,"2.91 µM [rising, single point]",
COc1ccc(NC(=O)c2ccccc2Oc2ccccc2)c(OC)c1,-2.91,,
COc1cccc(-c2cc3nc4c(c(N5CCC6(CC5)OCCO6)n3n2)CCCC4)c1,,"0.13 µM [falling, full curve, poor fit]",
CCC1CCCCN1C(=S)Nc1ccc(S(=O)(=O)Nc2ncccn2)cc1 (stereo unspecified),,"29.1 µM [rising, single point]",
COc1cc(NC(=O)C2CCCN2C(=O)OCc2ccccc2)cc(OC)c1 (stereo unspecified),,"2.59 µM [rising, partial curve]","2.59 µM [rising, partial curve]"
Cc1ccc(S(=O)(=O)NC(C)C(=O)OCC(=O)N(C)c2ccccc2)cc1 (stereo unspecified),-12.1,"0.0259 µM [falling, full curve, poor fit]","2.59 µM [falling, single point]"
COc1ccc(NC(=O)CCSc2nnnn2C)cc1,8.17,,
CCCCn1c(N)c(N(CCOC)C(=O)c2cnc(C)cn2)c(=O)[nH]c1=O,2.45,"13 µM [rising, partial curve]",

# Part of the list above in order of molar mass, falling.
SMILES,cell number change [%],AC50 [1],AC50 [2]
CCC1CCCCN1C(=S)Nc1ccc(S(=O)(=O)Nc2ncccn2)cc1 (stereo unspecified),,"29.1 µM [rising, single point]",
CCCN1C(=O)c2cc(C(=O)NC3CCCCCC3)ccc2C1O (stereo unspecified),,"2.91 µM [rising, single point]",
COc1ccc(CN=Cc2c(C(=O)O)[nH]c3ccccc23)cc1,-18.8,"5.8 µM [falling, partial curve, poor fit]","5.8 µM [falling, single point]"

# (list continues)

SMILES,cell number change [%],AC50 [1],AC50 [2]
O=S(=O)(NCC(c1ccc2c(c1)OCO2)N1CCN(c2ccccc2)CC1)c1ccccc1 (stereo unspecified),150,,"29.1 µM [rising, single point]"
Cc1ccccc1-n1c(C)nnc1SCC(=O)N1CC(=O)Nc2ccccc21,2.66,"23.1 µM [rising, single point]",
O=C(CSc1nnc(NC(=O)c2cccc(Cl)c2)s1)NCC1CCCO1 (stereo unspecified),24.6,,
C/C(=N\NS(=O)(=O)c1ccc(C)cc1)c1cccs1,7.26,,
O=C(NCCc1ccco1)C(=O)NCCC1CCCCN1S(=O)(=O)c1ccccc1 (stereo unspecified),-28.2,"0.146 µM [falling, full curve, poor fit]",
COc1ccc(Cl)cc1S(=O)(=O)Nc1ncn[nH]1,2.38,,"6.51 µM [rising, single point]"
O=C(Nc1nc2ccc(F)cc2s1)C1CC(=O)N(c2ccc3c(c2)OCCO3)C1 (stereo unspecified),-1.5,,
CCN(CC)S(=O)(=O)c1cccc(NN=c2c(=O)c3ccccc3c2=O)c1,8.52,"0.206 µM [rising, full curve, poor fit]",
N#CC1=C(N)Oc2c(ccc3ccccc23)C1c1ccsc1 (stereo unspecified),-15.4,"2.59 µM [falling, full curve, poor fit]",
CCC(C)NC(=O)COc1ccc(S(=O)(=O)N2CCOCC2)cc1 (stereo unspecified),-11.9,,
COCc1ccccc1C1=CC(=O)C[C@H](c2ccc(F)cc2)C1,-26.8,"1.16 µM [falling, single point]","0.517 µM [falling, full curve, poor fit]"
Cc1ccccc1OCCC(=O)Nc1cccc(S(=O)(=O)Nc2ccccc2Cl)c1,0.986,"11.6 µM [rising, partial curve]",
COc1ccc(C/C(N)=N/n2cnnc2)cc1,,"0.461 µM [falling, full curve]",
Cc1ccc(N(C)C(=O)N2CCN(S(=O)(=O)c3ccc4ccccc4c3)CC2)cc1,-8.28,"0.0651 µM [rising, partial curve, poor fit]",
O=C(COc1cccc2ccccc12)N/N=C/c1ccco1,-19.1,"0.92 µM [falling, full curve, poor fit]",
CC(=O)Cc1nsc(NC(=O)c2ccc(COc3cccc(C)c3)o2)n1,8.26,,
Fc1cccc(NC(=S)Nc2cccnc2)c1,6.95,"0.794 µM [falling, single point]",
CCC(c1nc2ccccc2c(=O)n1CCN1CCOCC1)N1C(=O)c2ccccc2C1=O (stereo unspecified),-1.53,,
CCCC(=O)N1CCN(c2ccc(NC(=O)c3ccc4c(c3)OCCO4)cc2)CC1,55.5,"6.51 µM [rising, single point]","18.4 µM [rising, partial curve]"
CN(C(=O)COC(=O)c1ccc(-c2ccc(O)cc2)cc1)C1CCS(=O)(=O)C1 (stereo unspecified),4.1,,"6.51 µM [falling, single point]"

# From PubChem BioAssay AID2685 (National Center for Advancing Translational Sciences (NCATS), 2010)
